In the supplement of paper PMC12823440, “Inhibitors supercharge kinase turnover through native proteolytic circuits” (Nature, 2025):
Where a name gives a salt, the structure may show the parent alone. The list shows a part of the results. The calls rarely recur for the same compound in another form.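 Kinases, fused to nanoluciferase, were expressed in K562 cells; luminescence was measured every 4 h from 2 to 18 h as percent of control (DMSO = 100%, positive control = 0%). A time point is decreased if signal falls significantly (2 sigma). Hits were called by the authors by a rule that is not shown; the count of time points alone does not decide it.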

Biological target: EGFR_G719S_T790M (UniProt P00533)
Assay: kinase-Nluc reporter destabilization hit call (1 = scored as downregulated) (binary); higher = compound decreases kinase abundance
Settings: K562; 2-18 h

kinase-Nluc reporter destabilization hit call, inactive:
COc1cccc(-c2cc(=O)c3ccccc3o2)c1N (10 µM) 0
C[C@@H]1COC(Nc2ccc3ncnc(Nc4ccc(OCc5nccs5)c(Cl)c4)c3c2)=N1 [Varlitinib] (10 µM) 0
Cc1nc(Nc2cnn(C3CCNCC3)c2)nc2c1N(C)C(=O)c1cc3ccccc3cc1N2C (2.5 µM) 0

Biological target: EGFR_L718V (UniProt P00533)
Assay: as above
Settings: K562; 2-18 h

kinase-Nluc reporter destabilization hit call, inactive:
O=c1cc(-c2ccc(O[C@@H]3O[C@H](CO)[C@@H](O)[C@H](O)[C@H]3O)cc2)oc2cc(O)c([C@@H]3O[C@H](CO)[C@@H](O)[C@H](O)[C@H]3O[C@@H]3OC[C@H](O)[C@H](O)[C@H]3O)c(O)c12 [Vaccarin] (10 µM) 0
O=CN1CCN(c2ccc(C=C3C(=O)Nc4ccccc43)cc2)CC1 (10 µM) 0
COc1ccc(Cl)cc1N(CC(=O)Nc1ccc2c(c1)OCO2)S(=O)(=O)c1ccccc1 (2.5 µM) 0
CCc1c(C(=O)NNC(=O)[C@H](O)c2cc(F)cc(F)c2)ccc(O)c1C (10 µM) 0
CN(C)CCn1cc2cc(NC(=O)c3cccc(C(F)(F)F)n3)c(C(C)(C)O)cc2n1 (10 µM) 0
CCC[C@H](C)Oc1nc(N)c2[nH]c(=O)n(CCCCCN3CCCCC3)c2n1 (10 µM) 0
CCOC(=O)c1c(C)[nH]c(C=C2C(=O)Nc3ccccc32)c1C (10 µM) 0
Cc1ccc(NC(=O)N2CCN(c3nc(N)nc4sc(-c5cccnc5)nc34)CC2)cc1 [PI4KIII beta inhibitor 3] (10 µM) 0
CS[C@@]1(C(=O)Nc2ccc3[nH]nc(-c4ccc(OC(C)C)nc4)c3c2)CCN(CC(=O)N2CC=C(c3ccc(-c4ncn(C)n4)cc3)CC2)C1 (2.5 µM) 0
O=C(Nc1ccc(Cl)cc1)C1CN(C(=O)c2cccc(-c3ccco3)c2)CC(F)(F)C1 (stereo unspecified) (2.5 µM) 0
Nc1ccc(Sc2nc3ccccc3s2)c(Cl)c1 [KRAS inhibitor-9] (10 µM) 0
Cn1c(N2CCO[C@@H](c3ccc(F)cc3)C2)nc(-c2ccncn2)cc1=O (10 µM) 0
COc1ccc(CN2CCC(c3ccc4nc(C(=O)N5CCN(Cc6ccc(C(F)(F)F)cc6)CC5)[nH]c4c3)CC2)cn1 (2.5 µM) 0
O=C(O)c1c[nH]c2cc(Cl)c(-c3ccc(C4(O)CCC4)cc3)cc12 (10 µM) 0
CC(C)(Oc1ccc(Cl)cc1)C(=O)Nc1ccc(OCc2ccc(C#N)cc2)cc1 [AMPK activator 4] (10 µM) 0
O=C(NCc1ccn[nH]1)c1cc([C@@H]2CCNC[C@H]2COc2ccc3c(c2)OCO3)ccc1F [GRK2-IN-1 (hydrochloride)] (10 µM) 0
Cc1cnc(Cl)nc1-c1ccc(N(Cc2ccc(CNC(=O)C(F)F)cc2)C(=O)c2ccc(O)cc2O)cc1 (10 µM) 0
CC1=C(C#N)C(c2ccc3[nH]nc(C)c3c2)C(C#N)=C(C)N1 (10 µM) 0
CN(C[C@@H]1COCCO1)S(=O)(=O)Nc1ccc2ccc3ncc(-c4cnn(C)c4)cc3c(=O)c2c1 (2.5 µM) 0
CC(=O)Nc1nc(C)c(-c2cc(C)c3c(c2)CN([C@@H](C)C2CC2)C3=O)s1 (10 µM) 0
O=C(Nc1ccccc1C(=O)NC1CCCCNC1=O)c1cc2ccccc2s1 (stereo unspecified) (10 µM) 0
CO[C@]1(C(=O)N[C@@H](C)c2ccc(-n3cc(F)cn3)nc2)CC[C@H](c2nc(C)cc(Nc3cc(C)[nH]n3)n2)CC1 [Pralsetinib] (10 µM) 0
O=[N+]([O-])c1ccc(-c2nc(-c3ccc(F)cc3)c(-c3ccncc3)[nH]2)cc1 (10 µM) 0
CC(ONC(=O)c1cc(C(F)(F)F)cc(C(F)(F)F)c1)C(=O)Nc1ccc(Cl)cc1 (stereo unspecified) (2.5 µM) 0
Cc1cncc2cccc(S(=O)(=O)N3CCCNC[C@@H]3C)c12 [H-1152 (dihydrochloride)] (10 µM) 0
Cc1nc(NC(=O)N2CCC[C@H]2C(N)=O)sc1-c1ccnc(C(C)(C)C(F)(F)F)c1 [Alpelisib] (2.5 µM) 0
CCCCNc1ncc2c(-c3ccc(F)cc3)nn(CC3CCC(N)CC3)c2n1 (stereo unspecified) (2.5 µM) 0
CS(=O)(=O)c1ccc([C@@H](CC2CCCC2)C(=O)Nc2nccs2)cc1 (10 µM) 0
CO/N=C1/C(c2c(O)[nH]c3cc(Cl)c(Cl)cc23)=Nc2ccccc21 (10 µM) 0
CNCc1ccccc1Sc1cccc2ccccc12 [IFN alpha-IFNAR-IN-1 (hydrochloride)] (10 µM) 0
C=CC(=O)N1CCC(c2ccc(C(N)=O)c(-c3ccc(Oc4ccccc4)cc3)n2)CC1 [Orelabrutinib] (2.5 µM) 0
Cc1cc2c(F)c(Oc3ncnn4cc(OC[C@@H](C)OC(=O)[C@H](C)N)c(C)c34)ccc2[nH]1 [Brivanib (alaninate)] (10 µM) 0
CCC(F)(F)c1cc(N2CCC(S(C)(=O)=O)CC2)nc2sc(C(N)=O)c(N)c12 (10 µM) 0
NC(=O)c1c(NC(=O)C2CC2)sc2c1CCCC2 (10 µM) 0
CC(C)=CCC[C@](C)(O[C@@H]1O[C@H](CO[C@@H]2O[C@H](CO)[C@@H](O)[C@H](O)[C@H]2O)[C@@H](O)[C@H](O)[C@H]1O)[C@H]1CC[C@]2(C)[C@@H]1[C@H](O)C[C@@H]1[C@@]3(C)CC[C@H](O[C@@H]4O[C@H](CO)[C@@H](O)[C@H](O)[C@H]4O[C@@H]4O[C@H](CO)[C@@H](O)[C@H](O)[C@H]4O)C(C)(C)[C@@H]3CC[C@]12C [Ginsenoside Rb1] (10 µM) 0
COc1cccc(-c2cc(=O)c3ccccc3o2)c1N (10 µM) 0
C[C@@H]1COC(Nc2ccc3ncnc(Nc4ccc(OCc5nccs5)c(Cl)c4)c3c2)=N1 [Varlitinib] (10 µM) 0
Cc1nc(Nc2cnn(C3CCNCC3)c2)nc2c1N(C)C(=O)c1cc3ccccc3cc1N2C (2.5 µM) 0
